Results: patent publication US20220411750A1, “CELL STRUCTURE, PRODUCTION METHOD THEREOF, AND METHOD FOR EVALUATING HEPATOTOXICITY OF SUBSTANCE TO BE TESTED” (TOPPAN INC., priority 2019, published 2022)
pIC50: −log10 of the molar value.

Legend:
[1] = tested on: cell structure having a liver sinusoidal network produced using CMF (Example A); assay: Toxicity evaluation by ATP assay, cell structure of Example A (produced using CMF); conditions: Homo sapiens, read-out: IC50 Example A
[2] = Yes/No; Yes for No. 1-14, No for No. 15-18; cited from earlier work
[3] = tested on: cell structure having a liver sinusoidal network produced using heparin and a collagen solution (Example B); assay: Toxicity evaluation by ATP assay, cell structure of Example B (produced using heparin and a collagen solution); conditions: Homo sapiens, read-out: IC50 Example B

## COC(=O)C1=C(C)NC(C)=C(C(=O)OC)C1c1ccccc1[N+](=O)[O-] [Nifedipine]
[1]
  pIC50: 3.26
[2]
  Toxicity: Yes
[3]
  pIC50: 3.44
